Test results taken from publication PMC7940485.

Chains of the proteins cited; added tags and fusions are not shown.
UniProt Q9NV88: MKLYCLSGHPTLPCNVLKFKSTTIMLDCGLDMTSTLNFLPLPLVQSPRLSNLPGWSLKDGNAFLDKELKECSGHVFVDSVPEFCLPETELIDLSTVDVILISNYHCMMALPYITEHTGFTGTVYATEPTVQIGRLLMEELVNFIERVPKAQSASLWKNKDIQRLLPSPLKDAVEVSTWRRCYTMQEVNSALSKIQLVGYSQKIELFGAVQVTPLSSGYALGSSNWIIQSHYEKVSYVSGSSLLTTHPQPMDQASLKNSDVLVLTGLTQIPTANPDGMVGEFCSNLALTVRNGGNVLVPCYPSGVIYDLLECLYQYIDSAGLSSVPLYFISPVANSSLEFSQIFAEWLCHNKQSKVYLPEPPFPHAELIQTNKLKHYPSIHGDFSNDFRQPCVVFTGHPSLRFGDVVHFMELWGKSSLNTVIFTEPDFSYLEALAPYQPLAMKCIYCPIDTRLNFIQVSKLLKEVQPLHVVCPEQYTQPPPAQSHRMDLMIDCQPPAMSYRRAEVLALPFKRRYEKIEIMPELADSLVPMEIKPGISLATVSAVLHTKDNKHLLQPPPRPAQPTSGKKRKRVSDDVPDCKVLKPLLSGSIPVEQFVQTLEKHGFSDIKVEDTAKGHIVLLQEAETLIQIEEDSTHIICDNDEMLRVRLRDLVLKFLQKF
UniProt Q5TA45: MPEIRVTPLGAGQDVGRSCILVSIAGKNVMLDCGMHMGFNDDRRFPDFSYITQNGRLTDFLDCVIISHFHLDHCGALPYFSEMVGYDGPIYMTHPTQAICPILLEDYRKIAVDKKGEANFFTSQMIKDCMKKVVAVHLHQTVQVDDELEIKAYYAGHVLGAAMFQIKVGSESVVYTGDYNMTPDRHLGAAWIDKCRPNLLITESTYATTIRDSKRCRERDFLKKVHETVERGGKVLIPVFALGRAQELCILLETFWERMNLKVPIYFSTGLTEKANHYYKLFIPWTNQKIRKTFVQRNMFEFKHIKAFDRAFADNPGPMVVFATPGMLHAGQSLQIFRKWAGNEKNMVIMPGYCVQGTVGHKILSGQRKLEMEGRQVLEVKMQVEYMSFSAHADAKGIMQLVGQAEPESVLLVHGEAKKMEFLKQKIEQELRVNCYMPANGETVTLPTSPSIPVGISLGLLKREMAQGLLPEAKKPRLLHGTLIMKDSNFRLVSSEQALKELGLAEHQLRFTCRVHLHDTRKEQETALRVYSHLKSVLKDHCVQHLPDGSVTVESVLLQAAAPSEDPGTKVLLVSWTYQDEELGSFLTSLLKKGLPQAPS

T1: GFP-WDR73 full length (stably expressed in podocytes) (human) (UniProt Q6P4I2)
T1 sequence: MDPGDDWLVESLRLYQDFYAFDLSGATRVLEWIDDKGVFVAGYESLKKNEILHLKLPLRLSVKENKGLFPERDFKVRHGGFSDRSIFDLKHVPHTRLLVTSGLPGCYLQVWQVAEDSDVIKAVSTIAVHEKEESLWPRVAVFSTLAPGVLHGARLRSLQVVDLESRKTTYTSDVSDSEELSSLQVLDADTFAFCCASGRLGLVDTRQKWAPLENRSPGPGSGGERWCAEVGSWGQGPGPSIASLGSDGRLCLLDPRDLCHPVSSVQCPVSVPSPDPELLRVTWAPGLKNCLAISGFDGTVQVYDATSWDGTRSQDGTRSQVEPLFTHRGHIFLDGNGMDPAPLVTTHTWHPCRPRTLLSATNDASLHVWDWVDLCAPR

T2: GFP-WDR73 full length (stably expressed in podocytes) (human), Q6P4I2
T2 chain: T1 sequence

B1: TUBB4B, P68371 1-445 (protein)
chain: MREIVHLQAGQCGNQIGAKFWEVISDEHGIDPTGTYHGDSDLQLERINVYYNEATGGKYVPRAVLVDLEPGTMDSVRSGPFGQIFRPDNFVFGQSGAGNNWAKGHYTEGAELVDSVLDVVRKEAESCDCLQGFQLTHSLGGGTGSGMGTLLISKIREEYPDRIMNTFSVVPSPKVSDTVVEPYNATLSVHQLVENTDETYCIDNEALYDICFRTLKLTTPTYGDLNHLVSATMSGVTTCLRFPGQLNADLRKLAVNMVPFPRLHFFMPGFAPLTSRGSQQYRALTVPELTQQMFDAKNMMAACDPRHGRYLTVAAVFRGRMSMKEVDEQMLNVQNKNSSYFVEWIPNNVKTAVCDIPPRGLKMSATFIGNSTAIQELFKRISEQFTAMFRRKAFLHWYTGEGMDEMEFTEAESNMNDLVSEYQQYQDATAEEEGEFEEEAEEEVA

What was measured:
[1] = molecular target: T1, GFP-WDR73 full length (stably expressed in podocytes) (human); experiment: affinity purification with mass spectrometry; proteomic analysis of GFP immunoprecipitates from a conditionally immortalised human podocyte cell line stably expressing GFP-WDR73 full length
[2] = molecular target: T2, GFP-WDR73 full length (stably expressed …); experiment: as above; conditions: remark: other sources report otherwise

| Molecule | binding [1] | binding [2] |
| --- | --- | --- |
| Integrator complex subunit 9 (endogenous, podocytes) (from UniProt Q9NV88 1-658) | binds | – |
| Integrator complex subunit 11 (endogenous, podocytes) (from UniProt Q5TA45 1-600) | binds | – |
| B1 | – | no binding |

These are yes or no findings as the source states them, for the method shown. In cells and extracts the contact can be indirect. A yes stands for co-enrichment or nearness to the bait. Other partners may have been found. For part of these data: A no says only that the protein was not detected with the bait. Sequences can lack the tags named with a protein.
